The values below are quoted from earlier work in patent EP0266640A2, “A pharmaceutical compound containing nifedipine” (Euro-Celtique S.A., priority 1986, dated 1988).

The conditions of the data set: cited from earlier work.

Regarding `COC(=O)C1=C(C)NC(C)=C(C(=O)OC)C1c1ccccc1[N+](=O)[O-]` [Nifedipine, 1,4-dihydro-2,6-dimethyl-4-(2-nitrophenyl)-3,5-pyridine carboxylic acid dimethyl ester], the water solubility result is reported as “approx. 6 mg/l”.
